Patent publication EP4549150A1, “RESIN COMPOSITION FOR THREE-DIMENSIONAL PRINTING” (Cubicure GmbH, priority 2023, dated 2025)

Assay: Photo-DSC photo-reactivity study
Assay type: physicochemical
Conditions: for DBC: double bond conversion calculated from measured ΔH and theoretical enthalpy 56 kJ mol^-1 for methacrylates; for ΔH: heat of polymerization, 50°C, 365 nm LED 17 mW cm^-2, 1% w/w TPO-L, integrated 0 to 200 s, * = no heat of polymerization detected
Method: Photo-DSC (differential scanning calorimetry) studies were performed using a Netzsch DSC 204 F1 containing an autosampler and coupled to an intracooler IC85 cooling device. The system was connected to an Omnicure LX500 controller with a 365 nm LED and the power intensity was set on the sample at 17 mW cm^-2 (measured using a Thorlabs SMC100 powermeter and the corresponding S310C thermal power head). The test samples were mixed in a vortex mixer for 3 minutes with 1% w/w of TPO-L (a commercially available photoinitiator) and then […] were transferred to an aluminum crucible without lid. All experiments were conducted under Nitrogen atmosphere (flow = 20 mL/min) at 50°C and the samples were irradiated for 5 minutes. Triplicate DSC measurements were performed for each example. The measured heat of polymerization (ΔH) was calculated by integrating the area under the curve from 0 to 200 s.
Here, tmax is the time when maximum heat evolution was reached and t95% corresponds to the point when 95% of the total heat of polymerization has evolved (0 s corresponds to the moment when light is triggered). The double bound conversion (DBC) was calculated from the experimentally obtained heat of polymerization and the theoretical polymerization enthalpy indicated in the literature (56 kJ mol^-1 for methacrylates).

| Molecule | DBC [%] | ΔH [kJ/mol] | ΔH (listed as Reference 1) | DBC (listed as Reference 2) [%] |
| --- | --- | --- | --- | --- |
| C=C(C)C(=O)OC1CCCCC1O (centres unmarked) [Ex1, 2-hydroxycyclohexyl methacrylate] | 80 | 41 |  |  |
| Isobornyl methacrylate [Ref1, reference compound] | 79 | 40 | ~ 40 kJ/mol |  |
| C=C(C)C(=O)OC1CCCCC1OC(=O)C(C)(C)C (centres unmarked) [Ex3, 2-(isopropenylcarbonyloxy)cyclohexyl 2,2-dimethylpropionate] | 85 | 43 |  |  |
| C=C(C)C(=O)OC1CCCCC1OC(=O)Cc1ccccc1 (centres unmarked) [Ex4, 2-(benzylcarbonyloxy)cyclohexyl methacrylate] | 72 | 37 |  |  |
| C=C(C)C(=O)OCCO [Ref2, 2-hydroxyethylmethacrylate, reference compound] | >99 | 52 |  | > 99 |
| C=C(C)C(=O)OC1CCCCC1OC(=O)C1CCCCC1 (centres unmarked) [Ex2, 2-(cyclohexylcarbonyloxy)cyclohexyl methacrylate] | 85 | 43 |  |  |
